Values from PubChem BioAssay AID652243 (Drosophila RNAi Screening Center, 2013)
Test: 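Fly genes required for human androgen receptor driven transcription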 (primary screen). Cell system: Drosophila S2R+ cells. Knock-down reagent: long dsRNA against Drosophila genes. Duration: 72 h (48 h, then 24 h hormone). Conditions: synthetic androgen R1881 at 10 nM for 24 h. Measured: 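Firefly light from an androgen-responsive reporter and Renilla control light per well, raw and unnormalised, for each of two replicates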. Scale: firefly reporter light: higher = more light from androgen-responsive reporter; Renilla control light: higher = more constitutive control signal (cell number, transfection). Hit rule: 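Hit when the log firefly-to-Renilla ratio dropped or increased by a fixed fold versus the mean of GFP or LacZ controls across duplicate plates; lowering cut given as 1.5 and as 3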. Calls: active = hit: reporter lowered or raised; inactive = no hit.
In all, the deposit lists about 24,000 reagents; this is an unselected part of those that have a named target and a result. Over the whole deposit, 246 (1%) were called active. 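Plates not normalised; calls are printed but the firefly/Renilla ratio behind them is not deposited; fold cut for lowering reported inconsistently.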 The raw values are shown without normalisation. The numbers tell different reagents against one gene apart. Names joined by + are all predicted targets of the reagent. Reagent sequences are not shown. Not stated in the record: the amount of reagent.

sw + Sdic4 + Sdic3 + 2 more #1 — firefly reporter light, replicate 1 = 1.00e5; firefly reporter light, replicate 2 = 1.25e5; Renilla control light, replicate 1 = 3.39e5; Renilla control light, replicate 2 = 2.94e5; outcome = inactive
sw + Sdic4 + Sdic3 + 2 more #2 — firefly reporter light, replicate 1 = 1.40e6; firefly reporter light, replicate 2 = 9.45e5; Renilla control light, replicate 1 = 1.73e6; Renilla control light, replicate 2 = 1.42e6; outcome = inactive
CG13625 — firefly reporter light, replicate 1 = 1.05e5; firefly reporter light, replicate 2 = 1.16e5; Renilla control light, replicate 1 = 7.80e5; Renilla control light, replicate 2 = 7.42e5; outcome = inactive
Cpr12A — firefly reporter light, replicate 1 = 4.72e5; firefly reporter light, replicate 2 = 5.59e5; Renilla control light, replicate 1 = 2.68e6; Renilla control light, replicate 2 = 3.96e6; outcome = inactive
Ret #1 — firefly reporter light, replicate 1 = 5.87e5; firefly reporter light, replicate 2 = 5.15e5; Renilla control light, replicate 1 = 2.60e6; Renilla control light, replicate 2 = 1.91e6; outcome = inactive
Ret #2 — firefly reporter light, replicate 1 = 94004; firefly reporter light, replicate 2 = 1.05e5; Renilla control light, replicate 1 = 8.93e5; Renilla control light, replicate 2 = 1.20e6; outcome = inactive
Ret #3 — outcome = inactive
arm #1 — firefly reporter light, replicate 1 = 1.28e5; firefly reporter light, replicate 2 = 1.15e5; Renilla control light, replicate 1 = 7.07e5; Renilla control light, replicate 2 = 6.78e5; outcome = inactive
arm #2 — firefly reporter light, replicate 1 = 5.70e5; firefly reporter light, replicate 2 = 6.32e5; Renilla control light, replicate 1 = 1.71e6; Renilla control light, replicate 2 = 1.54e6; outcome = inactive
chas #1 — firefly reporter light, replicate 1 = 6.47e5; firefly reporter light, replicate 2 = 5.64e5; Renilla control light, replicate 1 = 3.58e6; Renilla control light, replicate 2 = 2.60e6; outcome = inactive
chas #2 — firefly reporter light, replicate 1 = 5.19e5; firefly reporter light, replicate 2 = 4.58e5; Renilla control light, replicate 1 = 3.56e6; Renilla control light, replicate 2 = 3.67e6; outcome = inactive
chas #3 — firefly reporter light, replicate 1 = 9.32e5; firefly reporter light, replicate 2 = 9.71e5; Renilla control light, replicate 1 = 1.32e6; Renilla control light, replicate 2 = 1.15e6; outcome = inactive
dar1 — firefly reporter light, replicate 1 = 1.85e5; firefly reporter light, replicate 2 = 2.28e5; Renilla control light, replicate 1 = 2.44e6; Renilla control light, replicate 2 = 2.87e6; outcome = inactive
BBS5 #1 — firefly reporter light, replicate 1 = 1.04e5; firefly reporter light, replicate 2 = 1.50e5; Renilla control light, replicate 1 = 1.41e6; Renilla control light, replicate 2 = 1.02e6; outcome = inactive
BBS5 #2 — firefly reporter light, replicate 1 = 1.86e5; firefly reporter light, replicate 2 = 2.07e5; Renilla control light, replicate 1 = 5.51e5; Renilla control light, replicate 2 = 7.20e5; outcome = inactive

Copied from above for reference:
Cpr12A — firefly reporter light, replicate 1 = 4.72e5; firefly reporter light, replicate 2 = 5.59e5; Renilla control light, replicate 1 = 2.68e6; Renilla control light, replicate 2 = 3.96e6; outcome = inactive
Ret #1 — firefly reporter light, replicate 1 = 5.87e5; firefly reporter light, replicate 2 = 5.15e5; Renilla control light, replicate 1 = 2.60e6; Renilla control light, replicate 2 = 1.91e6; outcome = inactive
